These results are taken from article PMC7521923.

The chains behind the UniProt entries cited, without tags or fusion partners. Residues count along the entry.
UniProt Q9H461, residues 28-694: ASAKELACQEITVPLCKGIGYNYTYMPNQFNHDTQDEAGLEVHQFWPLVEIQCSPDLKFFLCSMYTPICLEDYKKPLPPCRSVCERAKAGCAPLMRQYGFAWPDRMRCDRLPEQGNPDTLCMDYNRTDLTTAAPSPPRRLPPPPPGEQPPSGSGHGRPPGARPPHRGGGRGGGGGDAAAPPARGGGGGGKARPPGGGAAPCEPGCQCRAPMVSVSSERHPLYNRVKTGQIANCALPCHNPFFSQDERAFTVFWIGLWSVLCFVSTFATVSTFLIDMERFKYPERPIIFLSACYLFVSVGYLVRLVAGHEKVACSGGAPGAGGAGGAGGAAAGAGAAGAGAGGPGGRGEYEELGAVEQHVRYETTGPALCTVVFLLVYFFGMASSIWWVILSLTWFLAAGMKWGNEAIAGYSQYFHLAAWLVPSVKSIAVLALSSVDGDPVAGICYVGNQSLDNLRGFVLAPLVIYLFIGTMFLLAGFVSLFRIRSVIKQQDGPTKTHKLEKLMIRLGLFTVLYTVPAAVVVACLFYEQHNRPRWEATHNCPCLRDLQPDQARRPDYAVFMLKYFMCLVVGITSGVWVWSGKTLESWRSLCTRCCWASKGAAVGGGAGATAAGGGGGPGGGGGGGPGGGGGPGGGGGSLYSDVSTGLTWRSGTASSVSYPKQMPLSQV
UniProt Q99835, residues 28-787: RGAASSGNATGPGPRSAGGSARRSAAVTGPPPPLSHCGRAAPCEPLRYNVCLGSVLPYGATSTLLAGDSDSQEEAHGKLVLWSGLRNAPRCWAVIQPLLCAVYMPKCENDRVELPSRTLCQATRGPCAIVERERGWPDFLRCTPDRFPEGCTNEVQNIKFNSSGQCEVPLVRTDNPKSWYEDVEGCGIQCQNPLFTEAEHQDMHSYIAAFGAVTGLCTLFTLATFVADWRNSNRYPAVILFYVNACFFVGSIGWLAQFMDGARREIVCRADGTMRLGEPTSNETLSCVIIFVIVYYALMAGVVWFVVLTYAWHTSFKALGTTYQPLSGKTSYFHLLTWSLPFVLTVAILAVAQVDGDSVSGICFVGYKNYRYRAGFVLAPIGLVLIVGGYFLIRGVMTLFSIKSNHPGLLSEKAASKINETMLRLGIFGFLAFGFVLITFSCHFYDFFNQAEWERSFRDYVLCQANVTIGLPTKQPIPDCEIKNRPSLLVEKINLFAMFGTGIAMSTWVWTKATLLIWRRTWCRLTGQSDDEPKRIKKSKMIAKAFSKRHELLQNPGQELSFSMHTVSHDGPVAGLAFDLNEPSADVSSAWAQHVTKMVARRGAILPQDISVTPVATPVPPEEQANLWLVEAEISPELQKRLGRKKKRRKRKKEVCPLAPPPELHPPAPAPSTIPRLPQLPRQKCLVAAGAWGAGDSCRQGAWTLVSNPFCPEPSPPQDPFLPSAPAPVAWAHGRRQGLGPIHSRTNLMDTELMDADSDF

No constants are given. Whether binding was seen depends on the method and setting. Binding seen in cells or lysates may run through a third protein. Some entries that bind do so weakly or less than the wild type.

Holding throughout (assay): co-IP; both partners expressed in transfected HEK293T cells (FZD5-USP8 also in T79KO cells and with TMEM79 overexpressed; USP8-TMEM79 in FZD null cells); NP40 lysis buffer (50 mM Tris pH 7.5, 150 mM NaCl, 1 mM EDTA, 1% NP40, 10% glycerol, 10 mM NaF); antibody-conjugated agarose beads (anti-c-Myc, anti-HA, anti-Flag M2 or anti-V5) at 4°C overnight; five washes; immunoblot

One assay addresses FZD8 (human) (UniProt Q9H461).
Another assay addresses Smoothened (SMO) (UniProt Q99835).
In a further assay the target is T1, USP8 (UniProt P40818).
T1 sequence: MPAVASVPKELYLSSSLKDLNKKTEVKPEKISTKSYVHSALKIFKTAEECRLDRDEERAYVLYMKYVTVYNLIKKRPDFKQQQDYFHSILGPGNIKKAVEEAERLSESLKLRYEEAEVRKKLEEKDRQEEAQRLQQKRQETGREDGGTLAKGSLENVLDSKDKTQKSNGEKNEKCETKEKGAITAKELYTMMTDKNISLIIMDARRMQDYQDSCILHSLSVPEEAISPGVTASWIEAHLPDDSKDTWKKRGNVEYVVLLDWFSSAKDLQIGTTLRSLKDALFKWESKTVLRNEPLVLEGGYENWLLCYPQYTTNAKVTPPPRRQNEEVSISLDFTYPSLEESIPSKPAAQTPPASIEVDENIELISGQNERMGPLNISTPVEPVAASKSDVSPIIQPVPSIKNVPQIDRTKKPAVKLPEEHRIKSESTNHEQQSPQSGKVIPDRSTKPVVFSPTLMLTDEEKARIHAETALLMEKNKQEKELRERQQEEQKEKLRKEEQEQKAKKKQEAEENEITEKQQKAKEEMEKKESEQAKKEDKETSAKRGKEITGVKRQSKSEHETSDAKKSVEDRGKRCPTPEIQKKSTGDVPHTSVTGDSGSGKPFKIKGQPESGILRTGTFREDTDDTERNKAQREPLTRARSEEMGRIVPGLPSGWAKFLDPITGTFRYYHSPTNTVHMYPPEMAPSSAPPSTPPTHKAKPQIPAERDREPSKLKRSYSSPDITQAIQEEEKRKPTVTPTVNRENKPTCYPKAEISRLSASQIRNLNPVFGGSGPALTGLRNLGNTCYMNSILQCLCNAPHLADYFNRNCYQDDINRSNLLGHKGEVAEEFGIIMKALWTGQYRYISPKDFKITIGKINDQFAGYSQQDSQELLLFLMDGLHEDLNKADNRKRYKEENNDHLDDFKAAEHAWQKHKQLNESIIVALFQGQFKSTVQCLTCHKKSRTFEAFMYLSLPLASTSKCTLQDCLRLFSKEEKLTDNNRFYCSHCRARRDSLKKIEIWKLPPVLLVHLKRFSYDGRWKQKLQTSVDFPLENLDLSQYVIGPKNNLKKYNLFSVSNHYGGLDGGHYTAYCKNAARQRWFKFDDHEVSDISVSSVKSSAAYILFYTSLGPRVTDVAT

B1: TMEM79 (FL, full length) (protein, UniProt Q9D709 1-391)
chain: MTEPETLALLDMKEPETPEKSPPQALVLQSEEEGGTESPGTESLRVGSSVGSPIVREGPEDGPDSTISEAATLPWGTDPHPSAPLPDPPGWRDIEPEPLESEAPTKSEEPFKEDANLLPEKTVRAFVPIDLQCIERKPQEERILHRDAGPGELRNFLPARLSHPEPPERKWAEAVVRPPGRSCGGCGSCGGREALRAVASVVAALIFFPCLLYGAYAFLPFDAPRLPTMSSRLVYTLRCGVFATFPIVLGLLVYGLSLLCFSALRPFGEPRREVEIHRQYVAQSVQLFILYFFNLAVLSTYLPQDTLKLLPLLTGLFAISRLIYWLTFAVGRSFRGFGYGLTFLPLLAMLVWNLYYMFVVEPERMLTASESRLDYPDHARSVSDYRPRSWG
Turning to B1, the binding entry with FZD8 (human) is given as “binds”; in the assay with Smoothened (SMO), “no binding”; with USP8 it was “binds”.
